# In the supplement of paper PMC10032668:
# Chains of the proteins cited; added tags and fusions are not shown.
# AARS, P49588, UniProt P49588, whole entry: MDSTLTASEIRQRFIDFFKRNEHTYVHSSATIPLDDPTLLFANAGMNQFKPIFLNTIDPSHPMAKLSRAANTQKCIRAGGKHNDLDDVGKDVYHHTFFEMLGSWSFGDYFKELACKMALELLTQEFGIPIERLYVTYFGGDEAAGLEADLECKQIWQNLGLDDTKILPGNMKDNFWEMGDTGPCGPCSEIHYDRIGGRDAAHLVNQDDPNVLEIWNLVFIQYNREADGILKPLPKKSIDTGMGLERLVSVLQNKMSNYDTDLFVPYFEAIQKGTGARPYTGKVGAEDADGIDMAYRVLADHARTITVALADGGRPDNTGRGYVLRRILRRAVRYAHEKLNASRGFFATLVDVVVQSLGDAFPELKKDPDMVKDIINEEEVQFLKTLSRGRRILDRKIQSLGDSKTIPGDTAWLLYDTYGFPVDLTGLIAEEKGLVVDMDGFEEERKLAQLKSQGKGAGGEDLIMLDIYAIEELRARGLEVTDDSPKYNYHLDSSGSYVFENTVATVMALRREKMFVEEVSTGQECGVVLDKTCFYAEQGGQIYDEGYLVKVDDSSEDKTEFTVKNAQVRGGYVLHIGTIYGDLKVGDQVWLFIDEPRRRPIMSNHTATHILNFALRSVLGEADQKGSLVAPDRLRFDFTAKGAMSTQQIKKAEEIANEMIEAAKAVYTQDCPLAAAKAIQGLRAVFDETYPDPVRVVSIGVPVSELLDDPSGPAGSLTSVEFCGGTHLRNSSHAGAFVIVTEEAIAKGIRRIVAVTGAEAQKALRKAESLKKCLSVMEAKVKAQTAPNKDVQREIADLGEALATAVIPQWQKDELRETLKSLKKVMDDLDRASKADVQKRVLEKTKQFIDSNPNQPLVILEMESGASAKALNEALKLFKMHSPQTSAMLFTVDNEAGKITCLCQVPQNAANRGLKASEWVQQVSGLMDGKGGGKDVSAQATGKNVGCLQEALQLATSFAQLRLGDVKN
# CCT5, P48643, UniProt P48643, whole entry: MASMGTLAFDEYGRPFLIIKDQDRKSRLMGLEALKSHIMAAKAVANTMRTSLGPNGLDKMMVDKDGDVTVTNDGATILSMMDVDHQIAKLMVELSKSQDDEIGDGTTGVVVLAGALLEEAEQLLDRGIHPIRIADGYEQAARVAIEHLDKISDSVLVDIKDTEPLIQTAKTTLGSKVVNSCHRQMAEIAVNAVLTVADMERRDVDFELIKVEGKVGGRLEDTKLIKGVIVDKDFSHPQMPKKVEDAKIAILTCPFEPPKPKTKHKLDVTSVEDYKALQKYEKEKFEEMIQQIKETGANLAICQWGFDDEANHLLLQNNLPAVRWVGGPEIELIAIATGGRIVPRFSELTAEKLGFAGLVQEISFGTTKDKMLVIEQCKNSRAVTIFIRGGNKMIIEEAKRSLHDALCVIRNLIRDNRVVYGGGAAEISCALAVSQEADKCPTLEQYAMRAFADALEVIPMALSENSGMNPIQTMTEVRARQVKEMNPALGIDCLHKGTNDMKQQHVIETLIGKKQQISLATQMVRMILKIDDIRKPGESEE
# CRIPT, Q9P021, UniProt Q9P021, whole entry: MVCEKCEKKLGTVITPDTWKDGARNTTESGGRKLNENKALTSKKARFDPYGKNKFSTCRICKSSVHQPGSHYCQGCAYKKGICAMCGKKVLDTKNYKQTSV
# FEN1, P39748, UniProt P39748, whole entry: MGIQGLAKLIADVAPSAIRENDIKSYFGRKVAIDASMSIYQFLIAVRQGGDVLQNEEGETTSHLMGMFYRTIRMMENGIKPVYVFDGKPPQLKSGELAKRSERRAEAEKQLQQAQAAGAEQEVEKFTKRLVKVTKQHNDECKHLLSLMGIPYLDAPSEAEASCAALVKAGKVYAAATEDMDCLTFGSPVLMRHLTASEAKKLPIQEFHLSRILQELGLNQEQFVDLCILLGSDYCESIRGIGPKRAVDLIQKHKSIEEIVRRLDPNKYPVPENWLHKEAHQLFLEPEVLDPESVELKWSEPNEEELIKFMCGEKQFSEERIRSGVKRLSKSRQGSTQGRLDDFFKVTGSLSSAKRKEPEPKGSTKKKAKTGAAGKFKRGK
# NDUFS1, P28331, UniProt P28331, whole entry: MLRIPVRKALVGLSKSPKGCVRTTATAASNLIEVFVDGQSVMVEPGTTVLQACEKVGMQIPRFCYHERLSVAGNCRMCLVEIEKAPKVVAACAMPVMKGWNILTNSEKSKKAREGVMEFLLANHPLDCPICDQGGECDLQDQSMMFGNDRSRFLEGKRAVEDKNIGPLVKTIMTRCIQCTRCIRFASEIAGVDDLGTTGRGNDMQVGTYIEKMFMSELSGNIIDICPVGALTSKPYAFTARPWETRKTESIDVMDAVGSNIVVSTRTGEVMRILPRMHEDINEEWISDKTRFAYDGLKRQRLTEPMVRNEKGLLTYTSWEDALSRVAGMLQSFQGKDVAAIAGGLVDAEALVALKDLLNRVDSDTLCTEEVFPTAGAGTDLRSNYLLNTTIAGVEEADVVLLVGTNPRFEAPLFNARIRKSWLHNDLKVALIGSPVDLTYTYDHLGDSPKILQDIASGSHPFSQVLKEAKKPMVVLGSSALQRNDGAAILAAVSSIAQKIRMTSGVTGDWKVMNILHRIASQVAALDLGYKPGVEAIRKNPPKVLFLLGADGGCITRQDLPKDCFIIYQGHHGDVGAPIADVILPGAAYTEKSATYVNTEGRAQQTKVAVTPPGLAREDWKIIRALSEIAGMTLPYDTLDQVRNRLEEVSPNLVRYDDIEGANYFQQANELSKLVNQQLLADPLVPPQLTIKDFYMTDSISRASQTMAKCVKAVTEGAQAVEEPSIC
# DNAJB1, P25685, UniProt P25685, whole entry: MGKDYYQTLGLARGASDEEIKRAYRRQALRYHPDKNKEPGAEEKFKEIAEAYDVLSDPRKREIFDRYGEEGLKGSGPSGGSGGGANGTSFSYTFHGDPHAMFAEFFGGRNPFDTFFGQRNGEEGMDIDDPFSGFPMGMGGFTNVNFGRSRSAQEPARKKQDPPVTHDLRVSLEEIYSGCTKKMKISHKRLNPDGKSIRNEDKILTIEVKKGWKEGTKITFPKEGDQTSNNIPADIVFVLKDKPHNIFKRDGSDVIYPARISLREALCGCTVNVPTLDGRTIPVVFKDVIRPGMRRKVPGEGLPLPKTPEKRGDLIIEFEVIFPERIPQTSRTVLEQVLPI
# EP300, Q09472, UniProt Q09472, whole entry: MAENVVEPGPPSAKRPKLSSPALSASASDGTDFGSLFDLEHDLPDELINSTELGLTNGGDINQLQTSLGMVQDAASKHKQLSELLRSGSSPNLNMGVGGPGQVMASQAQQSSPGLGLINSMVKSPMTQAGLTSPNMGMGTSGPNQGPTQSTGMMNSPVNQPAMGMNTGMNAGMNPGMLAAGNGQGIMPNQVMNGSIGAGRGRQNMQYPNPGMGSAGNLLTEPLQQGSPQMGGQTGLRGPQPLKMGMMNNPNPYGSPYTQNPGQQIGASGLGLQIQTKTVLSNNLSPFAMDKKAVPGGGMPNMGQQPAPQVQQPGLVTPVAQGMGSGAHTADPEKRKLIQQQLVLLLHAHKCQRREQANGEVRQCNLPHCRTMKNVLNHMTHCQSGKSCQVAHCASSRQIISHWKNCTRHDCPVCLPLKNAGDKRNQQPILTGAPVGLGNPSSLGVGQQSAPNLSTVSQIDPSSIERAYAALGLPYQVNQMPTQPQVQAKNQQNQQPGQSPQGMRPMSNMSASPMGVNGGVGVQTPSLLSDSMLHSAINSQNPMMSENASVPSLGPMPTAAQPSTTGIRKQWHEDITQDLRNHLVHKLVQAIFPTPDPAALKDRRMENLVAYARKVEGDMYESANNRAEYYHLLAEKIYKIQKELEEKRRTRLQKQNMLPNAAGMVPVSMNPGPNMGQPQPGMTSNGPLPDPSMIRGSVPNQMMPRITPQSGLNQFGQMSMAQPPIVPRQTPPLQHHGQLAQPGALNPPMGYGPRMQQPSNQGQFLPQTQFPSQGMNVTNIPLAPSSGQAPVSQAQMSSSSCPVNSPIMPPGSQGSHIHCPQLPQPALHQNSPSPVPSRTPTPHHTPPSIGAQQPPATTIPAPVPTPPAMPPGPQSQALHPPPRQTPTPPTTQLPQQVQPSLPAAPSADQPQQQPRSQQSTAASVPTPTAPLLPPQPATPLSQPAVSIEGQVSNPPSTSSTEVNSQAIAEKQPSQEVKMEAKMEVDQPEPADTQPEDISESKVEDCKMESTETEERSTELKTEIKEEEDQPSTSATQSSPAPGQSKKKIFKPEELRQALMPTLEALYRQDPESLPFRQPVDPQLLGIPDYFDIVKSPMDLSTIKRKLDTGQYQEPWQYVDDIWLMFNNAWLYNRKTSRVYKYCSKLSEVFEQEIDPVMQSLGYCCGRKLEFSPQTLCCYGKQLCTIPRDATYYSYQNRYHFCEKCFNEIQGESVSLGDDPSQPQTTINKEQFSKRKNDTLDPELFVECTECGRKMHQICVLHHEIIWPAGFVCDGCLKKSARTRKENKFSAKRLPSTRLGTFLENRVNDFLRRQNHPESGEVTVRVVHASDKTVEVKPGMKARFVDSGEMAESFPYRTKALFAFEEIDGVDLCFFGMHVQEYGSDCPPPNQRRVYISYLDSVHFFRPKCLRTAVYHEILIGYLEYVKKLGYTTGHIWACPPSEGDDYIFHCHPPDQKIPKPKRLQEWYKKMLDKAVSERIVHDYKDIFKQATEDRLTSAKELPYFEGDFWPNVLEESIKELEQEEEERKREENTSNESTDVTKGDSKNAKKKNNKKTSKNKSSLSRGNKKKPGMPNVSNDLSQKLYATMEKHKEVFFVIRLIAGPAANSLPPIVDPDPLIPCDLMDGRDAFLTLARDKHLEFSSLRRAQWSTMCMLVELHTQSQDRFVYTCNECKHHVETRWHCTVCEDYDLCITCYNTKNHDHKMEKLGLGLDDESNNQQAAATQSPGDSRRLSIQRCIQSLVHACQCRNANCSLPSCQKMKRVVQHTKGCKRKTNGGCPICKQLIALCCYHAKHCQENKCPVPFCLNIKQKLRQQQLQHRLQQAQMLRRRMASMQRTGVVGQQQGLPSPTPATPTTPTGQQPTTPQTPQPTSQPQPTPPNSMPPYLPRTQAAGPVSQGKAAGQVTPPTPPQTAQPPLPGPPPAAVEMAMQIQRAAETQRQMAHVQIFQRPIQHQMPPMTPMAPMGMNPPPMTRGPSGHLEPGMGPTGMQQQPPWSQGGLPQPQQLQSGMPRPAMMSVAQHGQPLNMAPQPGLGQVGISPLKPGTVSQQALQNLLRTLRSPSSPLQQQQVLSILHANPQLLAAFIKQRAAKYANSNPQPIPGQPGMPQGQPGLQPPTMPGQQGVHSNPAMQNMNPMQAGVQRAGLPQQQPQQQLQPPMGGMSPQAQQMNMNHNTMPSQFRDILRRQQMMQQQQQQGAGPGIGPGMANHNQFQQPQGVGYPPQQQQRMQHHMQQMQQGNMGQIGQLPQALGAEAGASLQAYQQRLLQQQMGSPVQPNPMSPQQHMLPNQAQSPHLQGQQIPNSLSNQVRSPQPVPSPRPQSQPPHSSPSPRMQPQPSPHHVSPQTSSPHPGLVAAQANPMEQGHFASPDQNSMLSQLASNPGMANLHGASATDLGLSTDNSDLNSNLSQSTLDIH
# MPG, P29372, UniProt P29372, whole entry: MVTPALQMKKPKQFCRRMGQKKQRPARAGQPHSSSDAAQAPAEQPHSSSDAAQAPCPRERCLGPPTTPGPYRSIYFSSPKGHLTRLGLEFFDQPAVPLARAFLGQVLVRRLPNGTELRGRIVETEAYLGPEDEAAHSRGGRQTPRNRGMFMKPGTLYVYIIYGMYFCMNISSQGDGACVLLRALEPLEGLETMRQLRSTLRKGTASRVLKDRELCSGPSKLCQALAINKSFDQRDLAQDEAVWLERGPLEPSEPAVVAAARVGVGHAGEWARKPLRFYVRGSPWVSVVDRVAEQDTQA
# PFDN6, O15212, UniProt O15212, whole entry: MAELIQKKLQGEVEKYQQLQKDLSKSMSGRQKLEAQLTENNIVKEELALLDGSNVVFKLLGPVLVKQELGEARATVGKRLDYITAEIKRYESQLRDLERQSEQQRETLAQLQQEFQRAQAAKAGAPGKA
# This is one part of the list. Only hits are listed; about a third recur on repeated control peptides.
# B1: TRDN-AS1 (peptide)
# chain: DWKGLMKPAVMLMRL
# B2: RP11-12K22.1 (peptide)
# chain: SLKVCGSSPILLSLP
# Assays:
# Assay in all cases: PRISMA enrichment of interactor (LFQ) in peptide spot vs all other peptide spots (log2 fold change); higher = stronger / more specific binding of the interactor to the peptide
# AARS, P49588 = molecular target: AARS, P49588
# Protocol: (§1)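 PRISMA: 15-aa overlapping tiles (offset 8 aa) of 60 microproteins, plus SOS1/GLUT1 control peptides, were spot-synthesized on cellulose membranes in triplicate. Membranes were incubated with benzonase-treated HEK293T lysate, and bound proteins were identified by LC-MS/MS with LFQ. Enrichment is the log2 fold change of each protein in one spot versus all other spots. Only interactors passing the significance cutoff are listed.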
# CCT5, P48643 = molecular target: CCT5, P48643
# Protocol: as §1
# CRIPT, Q9P021 = molecular target: CRIPT, Q9P021
# Protocol: as §1
# FAM50A, Q14320 = molecular target: FAM50A, Q14320
# Protocol: as §1
# FEN1, P39748 = molecular target: FEN1, P39748
# Protocol: as §1
# KARS, Q15046 = molecular target: KARS, Q15046
# Protocol: as §1
# LMNB1, P20700 = molecular target: LMNB1, P20700
# Protocol: as §1
# LUC7L3, O95232 = molecular target: LUC7L3, O95232
# Protocol: as §1
# MRPL43, Q8N983 = molecular target: MRPL43, Q8N983
# Protocol: as §1
# MYBBP1A, Q9BQG0 = molecular target: MYBBP1A, Q9BQG0
# Protocol: as §1
# NDUFS1, P28331 = molecular target: NDUFS1, P28331
# Protocol: as §1
# PDCD11, Q14690 = molecular target: PDCD11, Q14690
# Protocol: as §1
# RO60, P10155 = molecular target: RO60, P10155
# Protocol: as §1
# SCP2, P22307 = molecular target: SCP2, P22307
# Protocol: as §1
# TARS, P26639 = molecular target: TARS, P26639
# Protocol: as §1
# YWHAQ, P27348 = molecular target: YWHAQ, P27348
# Protocol: as §1
# YWHAZ, P63104 = molecular target: YWHAZ, P63104
# Protocol: as §1
# AAR2, Q9Y312 = molecular target: AAR2, Q9Y312
# Protocol: as §1
# ACTR2, P61160 = molecular target: ACTR2, P61160
# Protocol: as §1
# APRT, P07741 = molecular target: APRT, P07741
# Protocol: as §1
# DCXR, Q7Z4W1 = molecular target: DCXR, Q7Z4W1
# Protocol: as §1
# DECR1, Q16698 = molecular target: DECR1, Q16698
# Protocol: as §1
# DNAJB1, P25685 = molecular target: DNAJB1, P25685
# Protocol: as §1
# EP300, Q09472 = molecular target: EP300, Q09472
# Protocol: as §1
# LARP7, Q4G0J3 = molecular target: LARP7, Q4G0J3
# Protocol: as §1
# LPCAT3, Q6P1A2 = molecular target: LPCAT3, Q6P1A2
# Protocol: as §1
# MPG, P29372 = molecular target: MPG, P29372
# Protocol: as §1
# MRPS9, P82933 = molecular target: MRPS9, P82933
# Protocol: as §1
# [1] = substrate: NSF, P46459
# Protocol: as §1
# NUP214, P35658 = molecular target: NUP214, P35658
# Protocol: as §1
# PFDN6, O15212 = molecular target: PFDN6, O15212
# Protocol: as §1
# POLR2H, P52434 = molecular target: POLR2H, P52434
# Protocol: as §1
# PRPF3, O43395 = molecular target: PRPF3, O43395
# Protocol: as §1
# SFXN2, Q96NB2 = molecular target: SFXN2, Q96NB2
# Protocol: as §1
# SHROOM3, Q8TF72 = molecular target: SHROOM3, Q8TF72
# Protocol: as §1
# SPART, Q8N0X7 = molecular target: SPART, Q8N0X7
# Protocol: as §1
# STK24, Q9Y6E0 = molecular target: STK24, Q9Y6E0
# Protocol: as §1
# TWNK, Q96RR1 = molecular target: TWNK, Q96RR1
# Protocol: as §1
# UBAC2, Q8NBM4 = molecular target: UBAC2, Q8NBM4
# Protocol: as §1
# UBE2M, P61081 = molecular target: UBE2M, P61081
# Protocol: as §1
# UFD1, Q92890 = molecular target: UFD1, Q92890
# Protocol: as §1
# ZNF483, Q8TF39 = molecular target: ZNF483, Q8TF39
# Protocol: as §1
binder,measurement,setting,value
B1,PRISMA enrichment of interactor (log2),"AARS, P49588",6.62
same,PRISMA enrichment of interactor (log2),"CCT5, P48643",4.56
same,PRISMA enrichment of interactor (log2),"CRIPT, Q9P021",4.86
same,PRISMA enrichment of interactor (log2),"FAM50A, Q14320",3.35
same,PRISMA enrichment of interactor (log2),"FEN1, P39748",5.04
same,PRISMA enrichment of interactor (log2),"KARS, Q15046",4.39
same,PRISMA enrichment of interactor (log2),"LMNB1, P20700",6.42
same,PRISMA enrichment of interactor (log2),"LUC7L3, O95232",5.97
same,PRISMA enrichment of interactor (log2),"MRPL43, Q8N983",3.91
same,PRISMA enrichment of interactor (log2),"MYBBP1A, Q9BQG0",9.15
same,PRISMA enrichment of interactor (log2),"NDUFS1, P28331",3.86
same,PRISMA enrichment of interactor (log2),"PDCD11, Q14690",4.66
same,PRISMA enrichment of interactor (log2),"RO60, P10155",3.2
same,PRISMA enrichment of interactor (log2),"SCP2, P22307",4.51
same,PRISMA enrichment of interactor (log2),"TARS, P26639",3.89
same,PRISMA enrichment of interactor (log2),"YWHAQ, P27348",8.18
same,PRISMA enrichment of interactor (log2),"YWHAZ, P63104",4.97
B2,PRISMA enrichment of interactor (log2),"AAR2, Q9Y312",5.68
same,PRISMA enrichment of interactor (log2),"ACTR2, P61160",4.92
same,PRISMA enrichment of interactor (log2),"APRT, P07741",6.17
same,PRISMA enrichment of interactor (log2),"DCXR, Q7Z4W1",5.22
same,PRISMA enrichment of interactor (log2),"DECR1, Q16698",5.38
same,PRISMA enrichment of interactor (log2),"DNAJB1, P25685",4.94
same,PRISMA enrichment of interactor (log2),"EP300, Q09472",3.9
same,PRISMA enrichment of interactor (log2),"LARP7, Q4G0J3",5.27
same,PRISMA enrichment of interactor (log2),"LPCAT3, Q6P1A2",6.46
same,PRISMA enrichment of interactor (log2),"MPG, P29372",5.07
same,PRISMA enrichment of interactor (log2),"MRPS9, P82933",4.54
same,PRISMA enrichment of interactor (log2),[1],4.58
same,PRISMA enrichment of interactor (log2),"NUP214, P35658",4.9
same,PRISMA enrichment of interactor (log2),"PFDN6, O15212",4.23
same,PRISMA enrichment of interactor (log2),"POLR2H, P52434",4.7
same,PRISMA enrichment of interactor (log2),"PRPF3, O43395",4.64
same,PRISMA enrichment of interactor (log2),"SFXN2, Q96NB2",4.36
same,PRISMA enrichment of interactor (log2),"SHROOM3, Q8TF72",9.92
same,PRISMA enrichment of interactor (log2),"SPART, Q8N0X7",4.53
same,PRISMA enrichment of interactor (log2),"STK24, Q9Y6E0",4.64
same,PRISMA enrichment of interactor (log2),"TWNK, Q96RR1",4.27
same,PRISMA enrichment of interactor (log2),"UBAC2, Q8NBM4",5.22
same,PRISMA enrichment of interactor (log2),"UBE2M, P61081",4.52
same,PRISMA enrichment of interactor (log2),"UFD1, Q92890",6.35
same,PRISMA enrichment of interactor (log2),"ZNF483, Q8TF39",4.78

# Some of the entries so far, bar-delimited:
binder | measurement | setting | value
B2 | PRISMA enrichment of interactor (log2) | STK24, Q9Y6E0 | 4.64
same | PRISMA enrichment of interactor (log2) | TWNK, Q96RR1 | 4.27
